Consider seven molecules from publication PMC7817835.

Amino acid sequences for entries named in this document (tags omitted).
UniProt Q39565: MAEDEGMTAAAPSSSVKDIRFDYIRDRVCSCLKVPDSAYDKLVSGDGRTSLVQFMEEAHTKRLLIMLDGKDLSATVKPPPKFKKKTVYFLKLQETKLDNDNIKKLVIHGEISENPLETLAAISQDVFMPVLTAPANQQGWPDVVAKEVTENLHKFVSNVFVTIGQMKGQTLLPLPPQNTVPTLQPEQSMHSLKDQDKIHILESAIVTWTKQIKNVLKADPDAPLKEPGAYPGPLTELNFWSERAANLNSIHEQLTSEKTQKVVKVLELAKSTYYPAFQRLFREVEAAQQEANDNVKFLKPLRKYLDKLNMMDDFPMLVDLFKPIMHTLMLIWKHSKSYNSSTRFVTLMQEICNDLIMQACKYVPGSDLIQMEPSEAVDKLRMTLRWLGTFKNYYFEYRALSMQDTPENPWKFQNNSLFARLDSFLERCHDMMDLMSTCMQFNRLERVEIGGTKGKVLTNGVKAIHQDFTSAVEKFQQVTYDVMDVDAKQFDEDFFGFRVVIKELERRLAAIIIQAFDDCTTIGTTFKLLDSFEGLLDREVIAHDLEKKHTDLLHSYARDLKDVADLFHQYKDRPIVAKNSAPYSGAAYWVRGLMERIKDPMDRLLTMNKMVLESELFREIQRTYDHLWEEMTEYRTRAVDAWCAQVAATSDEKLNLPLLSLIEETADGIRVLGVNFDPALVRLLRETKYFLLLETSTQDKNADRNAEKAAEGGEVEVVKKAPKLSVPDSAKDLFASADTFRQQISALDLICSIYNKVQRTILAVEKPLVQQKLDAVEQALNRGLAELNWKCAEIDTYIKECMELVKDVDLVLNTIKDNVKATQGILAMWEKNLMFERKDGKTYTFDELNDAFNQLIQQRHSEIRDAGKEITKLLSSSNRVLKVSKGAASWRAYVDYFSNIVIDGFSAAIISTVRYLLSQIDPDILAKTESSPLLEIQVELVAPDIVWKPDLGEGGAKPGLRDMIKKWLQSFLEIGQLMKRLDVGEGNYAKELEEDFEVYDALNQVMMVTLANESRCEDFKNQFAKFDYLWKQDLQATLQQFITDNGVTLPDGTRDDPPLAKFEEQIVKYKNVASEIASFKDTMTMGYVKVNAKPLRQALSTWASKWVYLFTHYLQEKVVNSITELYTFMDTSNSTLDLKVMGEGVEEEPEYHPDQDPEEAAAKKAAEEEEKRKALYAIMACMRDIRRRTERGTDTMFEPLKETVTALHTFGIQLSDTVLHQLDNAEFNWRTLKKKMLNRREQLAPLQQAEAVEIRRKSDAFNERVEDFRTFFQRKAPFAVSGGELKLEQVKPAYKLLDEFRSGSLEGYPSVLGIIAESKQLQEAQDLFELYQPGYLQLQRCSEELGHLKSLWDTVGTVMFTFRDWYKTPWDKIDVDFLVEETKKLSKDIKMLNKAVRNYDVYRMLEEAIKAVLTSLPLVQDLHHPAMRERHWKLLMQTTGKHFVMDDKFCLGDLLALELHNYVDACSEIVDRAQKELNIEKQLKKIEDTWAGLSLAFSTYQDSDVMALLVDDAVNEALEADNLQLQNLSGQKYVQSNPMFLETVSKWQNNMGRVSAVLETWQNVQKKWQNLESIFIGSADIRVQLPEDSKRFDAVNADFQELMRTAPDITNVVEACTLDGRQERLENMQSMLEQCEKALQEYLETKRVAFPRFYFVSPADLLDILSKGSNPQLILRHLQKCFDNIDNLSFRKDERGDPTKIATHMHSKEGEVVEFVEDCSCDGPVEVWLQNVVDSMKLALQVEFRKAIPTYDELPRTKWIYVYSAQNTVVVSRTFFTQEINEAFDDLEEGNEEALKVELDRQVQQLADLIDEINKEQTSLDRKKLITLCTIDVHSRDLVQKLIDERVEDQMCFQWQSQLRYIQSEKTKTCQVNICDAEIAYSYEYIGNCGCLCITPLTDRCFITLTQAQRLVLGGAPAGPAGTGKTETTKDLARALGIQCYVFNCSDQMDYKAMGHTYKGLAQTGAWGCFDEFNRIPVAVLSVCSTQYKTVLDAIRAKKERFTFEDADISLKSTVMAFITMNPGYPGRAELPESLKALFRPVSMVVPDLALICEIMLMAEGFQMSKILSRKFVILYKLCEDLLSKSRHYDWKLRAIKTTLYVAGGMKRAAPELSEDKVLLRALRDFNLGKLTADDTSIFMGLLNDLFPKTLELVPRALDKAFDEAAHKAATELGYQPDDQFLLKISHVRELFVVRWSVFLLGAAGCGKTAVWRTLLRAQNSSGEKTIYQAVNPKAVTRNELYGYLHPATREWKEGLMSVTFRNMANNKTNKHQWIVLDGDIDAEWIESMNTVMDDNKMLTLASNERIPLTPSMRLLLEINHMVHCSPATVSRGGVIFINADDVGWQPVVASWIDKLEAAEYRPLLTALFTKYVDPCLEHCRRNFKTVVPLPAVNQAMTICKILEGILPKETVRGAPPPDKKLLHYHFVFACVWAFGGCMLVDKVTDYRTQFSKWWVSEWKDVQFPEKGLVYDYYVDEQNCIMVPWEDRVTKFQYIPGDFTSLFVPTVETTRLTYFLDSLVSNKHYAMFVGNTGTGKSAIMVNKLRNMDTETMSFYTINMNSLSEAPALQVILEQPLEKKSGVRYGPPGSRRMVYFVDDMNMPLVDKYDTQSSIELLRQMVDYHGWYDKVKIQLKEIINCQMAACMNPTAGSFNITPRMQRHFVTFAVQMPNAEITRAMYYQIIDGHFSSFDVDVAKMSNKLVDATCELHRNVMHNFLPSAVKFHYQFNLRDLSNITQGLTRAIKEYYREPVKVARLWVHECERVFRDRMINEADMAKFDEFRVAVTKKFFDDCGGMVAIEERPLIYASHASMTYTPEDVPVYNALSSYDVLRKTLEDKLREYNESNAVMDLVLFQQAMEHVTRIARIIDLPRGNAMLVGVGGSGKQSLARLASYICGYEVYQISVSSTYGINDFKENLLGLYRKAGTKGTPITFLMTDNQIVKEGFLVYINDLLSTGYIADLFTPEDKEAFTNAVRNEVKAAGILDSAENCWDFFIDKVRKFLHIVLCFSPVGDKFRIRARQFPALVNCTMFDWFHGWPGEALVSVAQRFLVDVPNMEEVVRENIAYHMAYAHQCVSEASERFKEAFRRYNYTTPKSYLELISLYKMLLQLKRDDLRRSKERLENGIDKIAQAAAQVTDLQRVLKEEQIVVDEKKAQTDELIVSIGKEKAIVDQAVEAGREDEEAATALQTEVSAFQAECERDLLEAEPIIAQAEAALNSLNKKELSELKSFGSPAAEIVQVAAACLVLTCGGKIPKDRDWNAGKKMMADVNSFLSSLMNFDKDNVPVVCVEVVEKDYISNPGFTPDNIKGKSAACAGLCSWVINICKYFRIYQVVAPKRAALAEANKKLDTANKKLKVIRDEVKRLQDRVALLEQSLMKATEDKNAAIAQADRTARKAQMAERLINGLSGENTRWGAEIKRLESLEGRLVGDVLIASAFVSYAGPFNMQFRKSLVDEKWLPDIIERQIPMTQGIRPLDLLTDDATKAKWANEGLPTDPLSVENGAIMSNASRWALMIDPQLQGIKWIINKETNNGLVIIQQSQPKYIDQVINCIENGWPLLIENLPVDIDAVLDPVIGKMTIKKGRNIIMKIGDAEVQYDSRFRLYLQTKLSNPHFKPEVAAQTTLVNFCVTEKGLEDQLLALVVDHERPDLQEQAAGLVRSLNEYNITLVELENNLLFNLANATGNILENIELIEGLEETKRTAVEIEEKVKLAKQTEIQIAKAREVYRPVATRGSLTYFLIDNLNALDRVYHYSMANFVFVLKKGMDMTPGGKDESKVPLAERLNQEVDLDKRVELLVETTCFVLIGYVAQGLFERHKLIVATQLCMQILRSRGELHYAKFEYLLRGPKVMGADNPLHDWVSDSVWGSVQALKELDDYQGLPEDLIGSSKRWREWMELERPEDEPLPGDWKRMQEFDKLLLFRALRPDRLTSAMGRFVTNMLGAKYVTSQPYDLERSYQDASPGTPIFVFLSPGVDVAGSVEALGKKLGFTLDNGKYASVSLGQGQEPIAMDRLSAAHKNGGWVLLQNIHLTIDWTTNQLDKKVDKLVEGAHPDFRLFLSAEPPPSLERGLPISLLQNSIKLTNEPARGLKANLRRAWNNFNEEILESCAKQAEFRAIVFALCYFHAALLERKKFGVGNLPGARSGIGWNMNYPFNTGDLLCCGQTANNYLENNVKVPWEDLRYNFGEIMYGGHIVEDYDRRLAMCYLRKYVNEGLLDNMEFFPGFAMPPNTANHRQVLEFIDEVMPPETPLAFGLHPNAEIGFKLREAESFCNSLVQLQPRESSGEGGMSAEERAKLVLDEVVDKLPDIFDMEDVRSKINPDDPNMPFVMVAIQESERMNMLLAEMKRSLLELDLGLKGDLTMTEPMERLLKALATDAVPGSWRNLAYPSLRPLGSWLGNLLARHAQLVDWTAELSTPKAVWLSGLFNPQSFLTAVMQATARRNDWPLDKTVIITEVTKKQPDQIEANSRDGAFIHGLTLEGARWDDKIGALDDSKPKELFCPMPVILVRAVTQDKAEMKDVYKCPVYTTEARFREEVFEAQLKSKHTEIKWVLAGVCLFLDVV
UniProt O04387: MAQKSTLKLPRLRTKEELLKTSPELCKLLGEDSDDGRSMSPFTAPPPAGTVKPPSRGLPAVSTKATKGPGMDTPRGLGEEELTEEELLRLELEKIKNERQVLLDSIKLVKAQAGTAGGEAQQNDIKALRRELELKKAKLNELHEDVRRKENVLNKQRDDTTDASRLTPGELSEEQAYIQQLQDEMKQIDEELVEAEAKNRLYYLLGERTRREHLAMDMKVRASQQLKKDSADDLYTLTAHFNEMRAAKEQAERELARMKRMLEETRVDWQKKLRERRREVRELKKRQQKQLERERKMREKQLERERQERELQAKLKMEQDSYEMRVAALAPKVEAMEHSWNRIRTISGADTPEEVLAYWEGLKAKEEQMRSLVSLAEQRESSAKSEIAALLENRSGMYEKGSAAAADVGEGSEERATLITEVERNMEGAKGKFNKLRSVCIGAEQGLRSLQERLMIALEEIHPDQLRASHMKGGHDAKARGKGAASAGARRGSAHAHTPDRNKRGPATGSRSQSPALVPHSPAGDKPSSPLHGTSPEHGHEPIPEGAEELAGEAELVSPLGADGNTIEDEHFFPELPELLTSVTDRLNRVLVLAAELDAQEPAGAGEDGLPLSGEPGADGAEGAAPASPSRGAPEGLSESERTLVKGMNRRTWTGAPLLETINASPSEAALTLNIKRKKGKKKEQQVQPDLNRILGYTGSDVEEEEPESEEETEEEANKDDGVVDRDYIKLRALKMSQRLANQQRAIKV

Read-outs that look alike come from different tables or passages of the source. These are yes or no findings as the source states them, for the method shown. Some binding calls cover weakened binding; strength is not graded here.

What all share (experiment): cryo-EM structure; single-particle cryo-EM of the native ODA on doublet microtubules of splayed C. reinhardtii axonemes (splayed with 10 mM Mg-ATP and 750 μM CaCl2 in HMDEKP; 250 μM free Ca2+); apo, post-powerstroke state
Experiment [1] has as its target outer dynein arm heavy chain γ-HC (Chlamydomonas reinhardtii (endogenous in flagella, strain CC-1690)) (UniProt Q39575).
In experiment [2] the target is outer dynein arm heavy chain β-HC (Chlamydomonas reinhardtii (endogenous in flagella, strain CC-1690)) (UniProt Q39565).
For experiment [3] the target is unchanged. The source holds these as a separate data set.
Experiment [4] addresses outer dynein arm heavy chain γ-HC (Chlamydomonas reinhardtii (endogenous in flagella, strain CC-1690)) (UniProt Q39575). The source holds these as a separate data set.
For experiment [5], the target named is ODA docking complex subunit DC1 (Chlamydomonas reinhardtii (endogenous in flagella, strain CC-1690)) (UniProt O04387).

Regarding “outer dynein arm heavy chain γ-HC (from UniProt Q39575 1-4485)”, the binding result in experiment [1] is given as “binds”.
As to “outer dynein arm heavy chain β-HC (from UniProt Q39565 1-4568)”, the binding result in experiment [2] and in experiment [1] was “binds” each time.
On to “ODA docking complex subunit DC1 (from UniProt O04387 1-749)”, for which the binding entry in experiment [2] and in experiment [1] was “binds” throughout.
In the case of “outer dynein arm heavy chain α-HC (from UniProt Q39610 1-4499)”, the binding entry in experiment [2] was “binds”.

B1: outer dynein arm intermediate chain IC1 (protein, UniProt Q39578 1-683)
chain: MPALSPAKKGTDKGKTGKKTGKQEQNAQDYIPPPPPMPGDEAFAMPIREIVKPDNQLWLSEADLNEEVAKMLTANNPAAPKNIVRFNMKDKVFKLEPMVEQTVVHYATDGWLLHKSSDEAKRQMDMEKMEQEASARFQADIDRASHEHKDHGDVEPPDDSRQLRNQFNFSERAAQTLNYPLRDRETFTEPPPTATVSGACTQWEIYDEYIKDLERQRIDEAMKSKGGKKAAAAARAAGAAHRQRNEHVPTLQSPTLMHSLGTLDRMVNQNMYEEVAMDFKYWDDASDAFRPGEGSLLPLWRFVSDKSKRRQVTSVCWNPLYDDMFAVGYGSYEFLKQASGLINIYSLKNPSHPEYTFHTESGVMCVHFHPEFANLLAVGCYDGSVLVYDVRLKKDEPIYQASVRTGKLNDPVWQIYWQPDDAQKSLQFVSISSDGAVNLWTLTKSELIPECLMKLRVVRAGETREEEDPNASGAAGGCCMDFCKMPGQESIYLVGTEEGAIHRCSKAYSSQYLSTYVSHHLAVYAVHWNNIHPSMFLSASCRLDHQAVGLCHDPKRAVMNFDLNDSIGDVSWAALQPTVFAAVTDDGRVHVFDLAQNKLLPLCSQKVVKKAKLTKLVFNPKHPIVLVGDDKGCVTSLKLSPNLRITSKPEKGQKFEDLEVAKLDGVVEIARKSDADLAKNAAH
On to B1, for which the binding result in experiment [3] and in experiment [4] was “binds” throughout.

B2: outer dynein arm intermediate chain IC2 (protein, UniProt P27766 1-567)
chain: MEIYHQYIKLRKQFGRFPKFGDEGSEMLADIRPNEDHGKEYIPRNPVTTVTQCVPEMSEHEANTNAVILVNKAMSHVEGGWPKDVDYTEAEHTIRYRKKVEKDEDYIRTVVQLGSSVEDLIKQNNAVDIYQEYFTNVTMDHTSEAPHVKTVTVFKDPNNIKRSASYVNWHPDGSVPKVVVAYSILQFQQQPAGMPLSSYIWDVNNPNTPEYEMVPTSQICCAKFNLKDNNLVGAGQYNGQLAYFDVRKGNGPVEATPIDISHRDPIYDFAWLQSKTGTECMTVSTDGNVLWWDLRKMNECVENMPLKEKNSETTVGGVCLEYDTNAGPTNFMVGTEQGQIFSCNRKAKNPVDRVKYVLSGHHGPIYGLRRNPFNSKYFLSIGDWTARVWVEDTAVKTPILTTKYHPTYLTGGTWSPSRPGVFFTIKMDGAMDVWDLYYKHNEPTLTVQVSDLALTAFAVQESGGTVAVGTSDGCTSVLQLSTGLSEASPAEKANINAMFERETTREKNLEKAIKEAKVKARKEQGRRDEVKDNVTEEQLKALEDEFFKTTDPAVGGGYGAGEGAAAE
Take B2: in experiment [3], the binding entry is reported as “binds”.

B3: ODA docking complex subunit DC3 (calcium-binding) (protein, UniProt Q7Y0H2 1-184)
chain: MASAAARERYARKNEQNELERAFNTIDSKGDKKIDAEELTELFLRLGHKPKRGEVEDMIWEVDEDCDGCISLLEFQTLYTRCRDDKTGYEPRGLFNVVEFVMNDKNNQGFITLEEAMQIMYLRYGRAELDMQLEQVFGTADLNSGKILTLTEFLHCLHTNQVKQLLNRVTAKTYKAPPPPQKRK
B3: the binding entry in experiment [5] and in experiment [4] was “binds” each time.
